Primary screen of a compound library

Data taken from ChEMBL document CHEMBL3988442, “University of Dundee, Small-Polar-MMV Screening Library” (2021).

Mtb cholesterol medium: 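Phenotypic screen: M. tuberculosis growth, cholesterol and DPPC medium, 4 days; the read-out is not stated. Tested at 50 µM. The record gives no direction; compounds that gave an IC50 in retests scored well above the rest, so higher reads as more growth inhibition. Size under these conditions: about 69,000 compounds, about 370 of them at 50% or above in at least one test.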
Mtb glucose medium: 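Whole-cell growth test on Mycobacterium tuberculosis, read after 3 days in glucose-containing 7H9 medium; the read-out is not stated. Concentration: 50 µM. Direction is inferred from retests: higher values go with more growth inhibition. Of about 69,000 compounds tested this way, about 760 (1.1%) reached 50% or more in at least one test.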

Each number is a percent effect as filed.
The controls that fix the scale are not given in the record; negative values are as filed.
This is an unselected part of the compounds tested.
Two or more numbers in one place are separate tests of the same structure; such repeats can differ widely.

- O=C1OCCN1CCS(=O)(=O)c1cccc(Cl)c1 : Mtb cholesterol medium: -5.413%; Mtb glucose medium: 11.73%
- CC(C)Oc1ncccc1CNC(=O)N1CCC1c1ccccc1 (centres undefined) : Mtb cholesterol medium: 6.474%; Mtb glucose medium: 9.146%
- Cc1noc2nc(C3CCN(CC4=CCCOC4)CC3)cc(C(F)F)c12.Cl : Mtb cholesterol medium: 13.71%; Mtb glucose medium: 7.481%
- CO[C@H]1CN(C(C)C)C[C@@H]1NC(=O)Nc1ccc(C(F)(F)F)cc1 : Mtb cholesterol medium: 9.806%; Mtb glucose medium: 19.43%
- COCCn1cnc2ccc(NC(=O)C3CC3)cc2c1=O : Mtb cholesterol medium: -2.047%; Mtb glucose medium: -0.8031%
- Cc1ccc(CN2CCC3(CCN(Cc4ccncc4)CC3)CC2)cc1 : Mtb cholesterol medium: 0.38%; Mtb glucose medium: 5.008%
- Cc1ccnc(NC(=O)c2cc(C)oc2C)c1 : Mtb cholesterol medium: -7.967%; Mtb glucose medium: -38.76% and 11.05%
- CCCc1cc(NC(=O)c2ccc(Cl)c(N3CCNC3=O)c2)n[nH]1 : Mtb cholesterol medium: 0.1454%; Mtb glucose medium: -4.874%
- CCc1nc(C#N)c(N2CCC(c3nc(-c4ccccc4)no3)CC2)o1 : Mtb cholesterol medium: 1.799%; Mtb glucose medium: 5.3%
- CCc1nnc(CN2CCCCC2Cn2cncn2)o1 (centres undefined) : Mtb cholesterol medium: -4.059%; Mtb glucose medium: -25.66%
- O=C(O)C(F)(F)F.[H][C@@]12CCN(Cc3cccs3)[C@]1([H])CC[C@@H](C(=O)N1CCCCO1)O2 : Mtb cholesterol medium: -4.796%; Mtb glucose medium: 3.17% and 0.3049%
- [H][C@]12CC[C@]([H])(CN(S(=O)(=O)N(CC)CC)C1)N(Cc1cscn1)C2=O : Mtb cholesterol medium: -8.365%; Mtb glucose medium: -24.97%
- O=C(NCc1ccccc1)N1CCC(Oc2ncccc2Br)CC1 : Mtb cholesterol medium: 12.1%; Mtb glucose medium: 17.01%
- Cc1noc(C(C)Nc2ccc3oc(C)nc3c2)n1 (centres undefined) : Mtb cholesterol medium: -18.26%; Mtb glucose medium: 10.84%
- CC(NC(=O)Nc1cc(F)cc(F)c1)c1nc[nH]n1 (centres undefined) : Mtb cholesterol medium: 6.781%; Mtb glucose medium: 2.59% and -24.82%
- Cc1cnn(CC2CN(Cc3csc(C4CCCC4)n3)CCO2)c1 (centres undefined) : Mtb cholesterol medium: -0.3789%; Mtb glucose medium: 8.282%
- C=C(C)Cn1cc(C(N)=O)nc1C1CC1 : Mtb cholesterol medium: -11.84%; Mtb glucose medium: -21.45% and -7.794%
- O=C(NCC1OCCc2cn(CC3CCOCC3)nc21)c1ccsc1.O=C(O)C(F)(F)F (centres undefined) : Mtb cholesterol medium: -6.447% and -30.24%; Mtb glucose medium: 23.91% and -6.843%
- Cc1ccc(CCNC(=O)N2CCC(Cc3cnn(C)c3)C2)cn1 (centres undefined) : Mtb cholesterol medium: -17.25%; Mtb glucose medium: -0.7087%
- O=C(O)c1ccccc1CN1CCC2(Cc3ccccc3CNC2=O)C1 (centres undefined) : Mtb cholesterol medium: -3.927%; Mtb glucose medium: 27.86%
- CCn1ccc2cc(NC(=O)CC3CCCO3)ccc21 (centres undefined) : Mtb cholesterol medium: -12.75%; Mtb glucose medium: 13.68%
- CC(C(=O)NCc1ccc(N2CCCC2)nc1)n1cncn1 (centres undefined) : Mtb cholesterol medium: 8.574%; Mtb glucose medium: -0.05012% and -0.9278%
- O=C1c2cnc(N3CCC(O)CC3)nc2CN1Cc1cccc(F)c1 : Mtb cholesterol medium: -10.06%; Mtb glucose medium: -33.33%
- Cn1ccnc1CN1CCC2(CC1)CC(NC(=O)c1ccccn1)CO2.O=C(O)C(F)(F)F (centres undefined) : Mtb cholesterol medium: 8.119%; Mtb glucose medium: 22.99%
- O=C(CCc1ccc(-n2cnnn2)cc1)Nc1ccncc1 : Mtb cholesterol medium: -6.207%; Mtb glucose medium: -42.84%
- CN(C)c1ccc(C(=O)N2CCCC2c2cnn(C)c2)nn1 (centres undefined) : Mtb cholesterol medium: -3.696%; Mtb glucose medium: 108.4% and -15.33%
- CCn1cc(NS(=O)(=O)c2ccc(Br)s2)c(C(=O)NCC(C)C)n1 : Mtb cholesterol medium: -16.51%; Mtb glucose medium: 3.094% and -5.037%
- COc1cccc(CN(Cc2ncc[nH]2)Cc2ccco2)c1.O=C(O)CC(O)(CC(=O)O)C(=O)O : Mtb cholesterol medium: -16.41% and 0.8223%; Mtb glucose medium: -27.01%
- CCCn1cc(NC(=O)c2ccc(S(C)(=O)=O)cc2)ccc1=O : Mtb cholesterol medium: -18.93%; Mtb glucose medium: -30.46%

2 of the entries, repeated:

- Cc1cnn(CC2CN(Cc3csc(C4CCCC4)n3)CCO2)c1 (centres undefined) : Mtb cholesterol medium: -0.3789%; Mtb glucose medium: 8.282%
- Cc1noc(C(C)Nc2ccc3oc(C)nc3c2)n1 (centres undefined) : Mtb cholesterol medium: -18.26%; Mtb glucose medium: 10.84%